# Laboratory results: PMC3653909
# Amino acid sequences for entries named in this document (tags omitted). A change or cut given only in a name is not applied to a line headed by its entry.
# UniProt P13864: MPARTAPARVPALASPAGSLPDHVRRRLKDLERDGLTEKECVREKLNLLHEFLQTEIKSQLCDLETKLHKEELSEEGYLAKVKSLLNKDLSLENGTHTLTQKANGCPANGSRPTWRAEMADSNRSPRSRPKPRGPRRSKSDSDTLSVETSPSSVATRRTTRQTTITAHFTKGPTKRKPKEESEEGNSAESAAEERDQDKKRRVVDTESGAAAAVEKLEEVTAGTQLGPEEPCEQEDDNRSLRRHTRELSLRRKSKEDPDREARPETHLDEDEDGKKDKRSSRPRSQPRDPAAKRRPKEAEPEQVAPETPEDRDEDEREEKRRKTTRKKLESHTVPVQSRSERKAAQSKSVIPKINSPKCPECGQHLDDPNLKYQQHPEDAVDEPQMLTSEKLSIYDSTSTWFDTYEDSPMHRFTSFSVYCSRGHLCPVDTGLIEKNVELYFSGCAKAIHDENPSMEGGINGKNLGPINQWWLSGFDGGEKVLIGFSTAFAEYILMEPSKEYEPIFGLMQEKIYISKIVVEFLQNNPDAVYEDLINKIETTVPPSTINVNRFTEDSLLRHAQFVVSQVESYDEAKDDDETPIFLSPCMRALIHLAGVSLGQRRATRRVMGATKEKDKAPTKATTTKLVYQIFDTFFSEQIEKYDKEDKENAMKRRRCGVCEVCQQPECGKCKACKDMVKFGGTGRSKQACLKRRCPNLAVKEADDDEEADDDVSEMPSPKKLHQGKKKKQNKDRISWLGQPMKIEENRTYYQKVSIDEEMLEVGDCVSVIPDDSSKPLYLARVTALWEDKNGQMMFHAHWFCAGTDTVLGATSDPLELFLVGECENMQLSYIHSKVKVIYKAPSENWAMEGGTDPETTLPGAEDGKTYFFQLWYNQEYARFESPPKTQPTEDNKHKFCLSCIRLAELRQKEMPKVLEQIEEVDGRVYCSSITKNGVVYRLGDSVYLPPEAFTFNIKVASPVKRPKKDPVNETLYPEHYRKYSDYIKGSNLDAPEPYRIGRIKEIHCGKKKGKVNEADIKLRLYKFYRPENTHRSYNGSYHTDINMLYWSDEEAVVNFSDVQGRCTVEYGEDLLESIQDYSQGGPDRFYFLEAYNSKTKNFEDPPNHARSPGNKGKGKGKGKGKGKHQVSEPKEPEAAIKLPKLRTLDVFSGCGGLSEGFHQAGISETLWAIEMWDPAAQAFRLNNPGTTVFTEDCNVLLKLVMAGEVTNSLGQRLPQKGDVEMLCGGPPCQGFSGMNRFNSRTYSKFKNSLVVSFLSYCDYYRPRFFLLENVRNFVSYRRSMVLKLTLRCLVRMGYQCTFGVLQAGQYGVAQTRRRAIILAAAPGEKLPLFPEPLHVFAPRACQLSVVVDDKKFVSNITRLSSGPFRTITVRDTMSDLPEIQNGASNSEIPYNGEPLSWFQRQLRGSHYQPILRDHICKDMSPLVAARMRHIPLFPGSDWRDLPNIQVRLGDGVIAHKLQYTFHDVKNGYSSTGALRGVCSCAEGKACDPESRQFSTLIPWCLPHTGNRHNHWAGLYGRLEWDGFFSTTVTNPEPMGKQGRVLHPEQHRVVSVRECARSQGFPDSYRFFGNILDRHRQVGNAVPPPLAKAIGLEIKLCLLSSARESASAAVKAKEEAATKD
# Construct, isoform or probe ends are uncertain for at least one entry. Where cells or extracts were used, other partners may take part. The comparison behind a weaker result is the experiment's own reference, which may not be listed here. For some assays here: At least one verdict was read from the data and is not stated in words by the source. For some assays here: Protein sequences can lack the tags named with them.
# How the values were obtained:
# Test in all cases: GFP-trap pull-down, fluorescent DNA in direct competition
# GFP-Tet1 (mouse) = GFP-Tet1 (mouse) (UniProt Q3URK3); conditions: protein in a lysate after overexpression, protein details: N-terminal GFP
# CXXCTet3-GFP (mouse) = target: T1, CXXCTet3-GFP (mouse) (UniProt Q8BG87); conditions: protein in a lysate after overexpression, protein details: C-terminal GFP
# T1 sequence (looked up, limits assumed): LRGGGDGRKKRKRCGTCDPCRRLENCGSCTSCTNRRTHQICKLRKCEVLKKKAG
# Cxxc4-GFP = target: T2, Cxxc4-GFP (UniProt Q6NXI8); conditions: protein in a lysate after overexpression, protein details: C-terminal GFP
# T2 sequence (looked up, limits assumed): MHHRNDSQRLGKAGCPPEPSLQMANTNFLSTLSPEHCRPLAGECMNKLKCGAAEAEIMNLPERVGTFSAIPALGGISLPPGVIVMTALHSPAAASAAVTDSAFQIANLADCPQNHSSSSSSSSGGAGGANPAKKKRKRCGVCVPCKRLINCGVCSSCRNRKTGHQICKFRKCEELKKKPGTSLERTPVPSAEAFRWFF
# GFP-Tet3 (mouse) = conditions: protein in a lysate after overexpression, protein details: N-terminal GFP
# CXXCTet1-GFP (mouse) = target: T3, CXXCTet1-GFP (mouse) (UniProt Q3URK3); conditions: protein in a lysate after overexpression, residues 561-614, protein details: C-terminal GFP
# T3 sequence (looked up): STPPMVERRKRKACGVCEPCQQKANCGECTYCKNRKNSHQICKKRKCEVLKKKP
# GFP-Tet3CXXCL (mouse) = GFP-Tet3CXXCL (mouse) (UniProt Q8BG87); conditions: protein in a lysate after overexpression, residues 1-1803, protein details: N-terminal GFP
# Cxxc5-GFP = target: T4, Cxxc5-GFP (UniProt Q91WA4); conditions: protein in a lysate after overexpression, protein details: C-terminal GFP
# T4 sequence (looked up, limits assumed): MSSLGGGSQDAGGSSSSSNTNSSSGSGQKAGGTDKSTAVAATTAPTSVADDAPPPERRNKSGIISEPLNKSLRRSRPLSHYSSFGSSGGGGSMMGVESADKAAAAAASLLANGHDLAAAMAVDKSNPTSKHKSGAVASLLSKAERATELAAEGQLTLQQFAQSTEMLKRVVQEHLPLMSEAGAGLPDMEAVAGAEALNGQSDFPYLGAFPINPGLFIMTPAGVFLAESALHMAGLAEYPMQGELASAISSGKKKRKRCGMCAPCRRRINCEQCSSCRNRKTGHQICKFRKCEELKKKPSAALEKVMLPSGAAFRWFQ
# GFP-Tet1 512-671 (mouse) = target: T5, GFP-Tet1 512-671 (mouse) (UniProt Q3URK3); conditions: CG = mCG > hmCG, protein in a lysate after overexpression, residues 512-671, protein details: N-terminal GFP
# T5 sequence (looked up): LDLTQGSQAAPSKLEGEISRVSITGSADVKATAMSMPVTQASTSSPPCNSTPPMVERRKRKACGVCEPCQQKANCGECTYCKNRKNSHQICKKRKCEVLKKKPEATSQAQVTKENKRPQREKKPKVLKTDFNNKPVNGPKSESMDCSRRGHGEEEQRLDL
# GFP-CXXCTet1 (mouse) = target: T6, GFP-CXXCTet1 (mouse) (UniProt Q3URK3); conditions: much lower than CXXCTet1-GFP, protein in a lysate after overexpression, residues 561-614, protein details: N-terminal GFP
# T6 sequence (looked up): T3 sequence (looked up)
# GFP-CXXCDnmt1 = GFP-CXXCDnmt1 (UniProt P13864); conditions: lower activity than Cxxc4, Cxxc5 and Tet constructs; protein in a lysate after overexpression; protein details: N-terminal GFP
# [1] = versus CG, label: 5' ATTO647N on strand 2
# [2] = CG > mCG > hmCG, 5-methylcytosine at position 21 of both strands, label: 5' ATTO dye on strand 2 (mC700: ATTO700)
# [3] = 5-methylcytosine at position 21 of both strands, label: 5' ATTO dye on strand 2 (mC700: ATTO700)
# [4] = relative increase for mCG versus CXXCTet3-GFP, 5-methylcytosine at position 21 of both strands, label: 5' ATTO dye on strand 2 (mC700: ATTO700)
# [5] = CG > mCG > hmCG, 5-hydroxymethylcytosine at position 21 of both strands, label: 5' ATTO dye on strand 2 (hmC550: ATTO550)
sequence,measurement,setting,value
CTCAACAACTAACTACCATCTGGACCAGAAGAGTCATCATGG / CCATGATGACTCTTCTGGTCTGGATGGTAGTTAGTTGTTGAG [noCG],binding result,GFP-Tet1 (mouse); [1],binds more weakly
same,binding result,CXXCTet3-GFP (mouse); [1],binds more weakly
same,binding result,Cxxc4-GFP; [1],binds more weakly
same,binding result,GFP-Tet3 (mouse); [1],binds more weakly
same,binding result,CXXCTet1-GFP (mouse); [1],binds more weakly
same,binding result,GFP-Tet3CXXCL (mouse); [1],binds more weakly
same,binding result,Cxxc5-GFP; [1],binds more weakly
CTCAACAACTAACTACCATCCGGACCAGAAGAGTCATCATGG (double strand),binding result,"GFP-Tet1 (mouse); 8-fold higher activity than CXXCTet1-GFP, 4-fold molar excess of DNA",binds
same,binding result,CXXCTet3-GFP (mouse); CG > mCG > hmCG,binds
same,binding result,GFP-Tet1 512-671 (mouse),binds
same,binding result,GFP-CXXCTet1 (mouse),binds more weakly
same,binding result,Cxxc4-GFP; CG > mCG > hmCG,binds
same,binding result,GFP-Tet3 (mouse); 4-fold molar excess of DNA,binds
same,binding result,CXXCTet1-GFP (mouse); CG = mCG > hmCG,binds
same,binding result,GFP-Tet3CXXCL (mouse); 4-fold molar excess of DNA,binds
same,binding result,Cxxc5-GFP; CG > mCG > hmCG,binds
same,binding result,GFP-CXXCDnmt1,binds more weakly
CTCAACAACTAACTACCATCCGGACCAGAAGAGTCATCATGG (double strand) [mCG],binding result,"GFP-Tet1 (mouse); same preference as CXXCTet1-GFP, 4-fold molar excess of DNA, 5-methylcytosine at position 21 of both strands, label: 5' ATTO dye on strand 2 (mC700: ATTO700)",binds
same,binding result,CXXCTet3-GFP (mouse); [2],binds more weakly
same,binding result,GFP-Tet1 512-671 (mouse); [3],binds
same,binding result,GFP-CXXCTet1 (mouse); [3],binds more weakly
same,binding result,Cxxc4-GFP; [2],binds more weakly
same,binding result,GFP-Tet3 (mouse); [4],binds
same,binding result,"CXXCTet1-GFP (mouse); CG = mCG > hmCG, 5-methylcytosine at position 21 of both strands, label: 5' ATTO dye on strand 2 (mC700: ATTO700)",binds
same,binding result,GFP-Tet3CXXCL (mouse); [4],binds
same,binding result,Cxxc5-GFP; [2],binds more weakly
CTCAACAACTAACTACCATCCGGACCAGAAGAGTCATCATGG (double strand) [hmCG],binding result,"GFP-Tet1 (mouse); same preference as CXXCTet1-GFP, 4-fold molar excess of DNA, 5-hydroxymethylcytosine at position 21 of both strands, label: 5' ATTO dye on strand 2 (hmC550: ATTO550)",binds more weakly
same,binding result,CXXCTet3-GFP (mouse); [5],binds more weakly
same,binding result,"GFP-Tet1 512-671 (mouse); 5-hydroxymethylcytosine at position 21 of both strands, label: 5' ATTO dye on strand 2 (hmC550: ATTO550)",binds more weakly
same,binding result,Cxxc4-GFP; [5],binds more weakly
same,binding result,"CXXCTet1-GFP (mouse); CG = mCG > hmCG, 5-hydroxymethylcytosine at position 21 of both strands, label: 5' ATTO dye on strand 2 (hmC550: ATTO550)",binds more weakly
same,binding result,Cxxc5-GFP; [5],binds more weakly
